PubChem BioAssay AID1508597 | Cure First, 2020

Assay: 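Survival screen with siRNA in ovarian cancer cells derived from patients, with or without rucaparib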 (primary screen)
System: human ovarian carcinoma lines grown from tumours: OCI-P5x (papillary serous) and OCI-C5x (clear cell)
Knock-down reagent: siRNA pool against human genes, 1.25 pmol siRNA per well
Time to read-out: 72 h or 96 h, depending on the cell culture
Conditions: rucaparib 20 µM (about IC30) or vehicle, present until read-out
Measured: 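Luminescent ATP-based viability assay read 72 or 96 h after transfection, depending on culture, given as normalised percent viability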
Scale: viability, normalised: higher = more viable cells remaining
Hit rule: 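Active when normalised viability falls below 80 percent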
Meaning of the calls: active = viability under 80%; inactive = viability 80% or more
The deposit covers about 2,100 reagents; this is a random part of them. 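Calls flag viability under 80% in either arm, not effects specific to rucaparib; the reference for percent is not stated.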 Entries without a mark were called inactive. The record does not give: the 100% reference.

Target gene | rucaparib or vehicle | cell line | technical replicate | viability, normalised (%)
DYRK2 (dual specificity tyrosine phosphorylation regulated kinase 2) | Rucaparib | OCI-C5x (clear cell) | 1 | 55 (active)
DYRK2 (dual specificity tyrosine phosphorylation regulated kinase 2) | Rucaparib | OCI-C5x (clear cell) | 2 | 48.4 (active)
DYRK2 (dual specificity tyrosine phosphorylation regulated kinase 2) | Rucaparib | OCI-C5x (clear cell) | 3 | 51.1 (active)
DYRK2 (dual specificity tyrosine phosphorylation regulated kinase 2) | Rucaparib | OCI-P5x (serous) | 1 | 102
DYRK2 (dual specificity tyrosine phosphorylation regulated kinase 2) | Rucaparib | OCI-P5x (serous) | 2 | 114
DYRK2 (dual specificity tyrosine phosphorylation regulated kinase 2) | Rucaparib | OCI-P5x (serous) | 3 | 112
DYRK2 (dual specificity tyrosine phosphorylation regulated kinase 2) | Vehicle | OCI-C5x (clear cell) | 1 | 62.4 (active)
DYRK2 (dual specificity tyrosine phosphorylation regulated kinase 2) | Vehicle | OCI-C5x (clear cell) | 2 | 45 (active)
DYRK2 (dual specificity tyrosine phosphorylation regulated kinase 2) | Vehicle | OCI-C5x (clear cell) | 3 | 42.6 (active)
DYRK2 (dual specificity tyrosine phosphorylation regulated kinase 2) | Vehicle | OCI-P5x (serous) | 1 | 74.4 (active)
DYRK2 (dual specificity tyrosine phosphorylation regulated kinase 2) | Vehicle | OCI-P5x (serous) | 2 | 76 (active)
DYRK2 (dual specificity tyrosine phosphorylation regulated kinase 2) | Vehicle | OCI-P5x (serous) | 3 | 73.3 (active)
TAF3 (TATA-box binding protein associated factor 3) | Rucaparib | OCI-C5x (clear cell) | 1 | 54.9 (active)
TAF3 (TATA-box binding protein associated factor 3) | Rucaparib | OCI-C5x (clear cell) | 2 | 53.8 (active)
TAF3 (TATA-box binding protein associated factor 3) | Rucaparib | OCI-C5x (clear cell) | 3 | 42 (active)
TAF3 (TATA-box binding protein associated factor 3) | Rucaparib | OCI-P5x (serous) | 1 | 52.2 (active)
TAF3 (TATA-box binding protein associated factor 3) | Rucaparib | OCI-P5x (serous) | 2 | 37.4 (active)
TAF3 (TATA-box binding protein associated factor 3) | Rucaparib | OCI-P5x (serous) | 3 | 56.7 (active)
TAF3 (TATA-box binding protein associated factor 3) | Vehicle | OCI-C5x (clear cell) | 1 | 45 (active)
TAF3 (TATA-box binding protein associated factor 3) | Vehicle | OCI-C5x (clear cell) | 2 | 55.3 (active)
TAF3 (TATA-box binding protein associated factor 3) | Vehicle | OCI-C5x (clear cell) | 3 | 41.4 (active)
TAF3 (TATA-box binding protein associated factor 3) | Vehicle | OCI-P5x (serous) | 1 | 66.6 (active)
TAF3 (TATA-box binding protein associated factor 3) | Vehicle | OCI-P5x (serous) | 2 | 63.7 (active)
TAF3 (TATA-box binding protein associated factor 3) | Vehicle | OCI-P5x (serous) | 3 | 66.6 (active)
